Laboratory results taken from article PMC10817943 (Nature Communications, 2024).
Results are given in words; binding and its absence hold for the method and conditions named. In cells and extracts the contact can be indirect. Binding calls can cover weak binding; strength is not graded here.

Target: T1, aaLeuC, isopropylmalate isomerase subunit LeuC from primary metabolism of A. awajinensis ATCC 33919 (Actinoplanes awajinensis ATCC 33919)
T1 sequence: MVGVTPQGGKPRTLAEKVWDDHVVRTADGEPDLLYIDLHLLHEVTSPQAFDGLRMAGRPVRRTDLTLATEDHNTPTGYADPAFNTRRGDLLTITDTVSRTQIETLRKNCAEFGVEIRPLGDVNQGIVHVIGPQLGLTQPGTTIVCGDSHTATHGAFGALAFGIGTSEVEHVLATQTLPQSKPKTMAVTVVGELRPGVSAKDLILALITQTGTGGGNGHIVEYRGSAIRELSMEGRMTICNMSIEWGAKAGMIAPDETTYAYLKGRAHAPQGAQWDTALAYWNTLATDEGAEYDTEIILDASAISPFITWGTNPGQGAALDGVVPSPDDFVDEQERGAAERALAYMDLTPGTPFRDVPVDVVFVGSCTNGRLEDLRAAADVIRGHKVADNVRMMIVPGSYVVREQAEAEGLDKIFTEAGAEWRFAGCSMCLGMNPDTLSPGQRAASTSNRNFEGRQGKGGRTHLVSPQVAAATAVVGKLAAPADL
Assay: co-purification; aaLeuC and MypLN co-expressed in E. coli from pACYCDuet-1 and purified together (Histrap column, desalting)

binding: binds
Substance: MypLN, N-terminal isopropylmalate isomerase subunit (LeuD) homolog domain of MypL (Actinoplanes awajinensis ATCC 33919) (domain or fragment)
